Measured values: the supplement of paper PMC12009310
Where a name gives a salt, the structure may show the parent alone. ± gives the standard deviation of the averaged measurements. This is one part of the list. Part of the spread comes from offsets between plates or batches.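 The cells are a mouse kidney inner medullary collecting duct line, silenced either for the ciliary gene Rpgrip1l or with a non-targeting control siRNA.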

Key:
mIMCD3 [1] = assay: robust z score of cell number vs plate controls; higher = more cells (less cytotoxic); conditions: 10 µM, 48 h
mIMCD3 [2] = assay: robust z score of cilia incidence (% cells with single cilium) vs plate controls; higher = more ciliated cells; conditions: 10 µM; 48 h; siRNA: siScr
mIMCD3 [3] = assay: robust z score of cilia incidence (% cells with single cilium) vs plate controls; higher = more ciliated cells (rescue of cilia loss); conditions: 10 µM; 48 h; siRNA: siRpgrip1l

Compound | robust z score of cell number (mIMCD3 [1]; siRNA: siRpgrip1l) | robust z score of cell number (mIMCD3 [1]; siRNA: siScr) | robust z score of cilia incidence (mIMCD3 [2]) | robust z score of cilia incidence (mIMCD3 [3])
O=C(NCCCCCCNC(=O)ON=C1CCCCC1)ON=C1CCCCC1 | -2.28 ± 1.5 | -3.38 ± 1.1 | -9.68 ± 6.3 | -36.5 ± 22
Cc1c(OCC(F)(F)F)ccnc1C[S+]([O-])c1nc2ccccc2[nH]1 (stereo unspecified) [Lansoprazole] | -6.98 ± 2.1 | -2.04 ± 2 | 0.622 ± 2.2 | -20.2 ± 1.9
CC1(C)C(=O)NC2=C1C(=O)C(=O)c1ccccc12 | -40.8 ± 26 | -54 ± 28 | -30.9 ± 16 | -56.2 ± 8
COc1ccccc1N1CCN(CCCNc2cc(=O)n(C)c(=O)n2C)CC1 [Urapidil hydrochloride] | -3.72 ± 5.6 | -5.88 ± 2.6 | -4.46 ± 2.3 | -15.7 ± 9.6
O=C(NCCCN1CCC2(CC1)OCc1ccccc12)[C@H]1CCCN1Cc1ccccc1 | -51.9 ± 65 | -3.64 ± 4.7 | -2.7 ± 1.6 | -17.7 ± 2.6
COc1ccc(CCN(C)CCCN2CCc3cc(OC)c(OC)cc3CC2=O)cc1OC [Zatebradine hydrochloride] | 0.661 ± 2 | -4.86 ± 6 | -0.247 ± 0.29 | -10.3 ± 7.2
C#CCN1C(C)=C(C(=O)OC)C(c2cccc([N+](=O)[O-])c2)C(C(=O)OCC)=C1C (stereo unspecified) | -16.9 ± 14 | -14.8 ± 3.5 | 4.32 ± 0.22 | -13.1 ± 0.69
Cc1[nH]c(/C=C2\C(=O)Nc3ccccc32)c(C)c1CCC(=O)O | -14.2 ± 13 | -3.57 ± 6.7 | 0.901 ± 2.1 | -5.36 ± 3.2
Nc1nc(Nc2ccccc2)nc2c1ncn2[C@@H]1O[C@H](CO)[C@@H](O)[C@H]1O | -4.9 ± 3.7 | -2.44 ± 1.4 | -2 ± 4.5 | -12.9 ± 5.8
CC1=C(/C=C/C(C)=C/C=C/C(C)=C/C(=O)O)C(C)(C)CCC1 [Retinoic acid] | -4.13 ± 6.9 | -0.116 ± 0.34 | -1.43 ± 2.5 | -9.13 ± 3.9
c1ccc(-c2[nH]ncc2-c2ccnc3ccccc23)nc1 | -6.6 ± 3.9 | 0.53 ± 1.8 | -0.783 ± 2.5 | -9.73 ± 4
c1ccc(CN(CC2=NCCN2)c2ccccc2)cc1 [Antazoline hydrochloride] | -3.24 ± 2.2 | -3.08 ± 2.2 | -2.66 ± 0.53 | -7.04 ± 1.4
Nc1[nH]nc2nc3ccccc3nc12 | -2.79 ± 0.41 | -0.72 ± 0.5 | 5.91 ± 4.6 | -22.5 ± 21
O=C(O)c1ccc(-c2c[nH]c3ncc(-c4ccccc4)cc23)cc1C1CCCC1 | -31.7 ± 31 | -14.1 ± 13 | -20 ± 9.2 | -25.2 ± 17
CCCCCCCC/C=C\CCCCCCCC(=O)N[C@@H](CO)Cc1ccc(O)cc1 | -43.6 ± 40 | -43.3 ± 29 | -123 ± 64 | -121 ± 120
Cc1noc(NS(=O)(=O)c2ccc(N)cc2)c1C [Sulfisoxazole] | -2 ± 2.7 | -1.66 ± 3.3 | 1.11 ± 5 | -6.86 ± 1.7
O=C(OCCN1CCCCC1)c1c[nH]c2ccccc12 | 3.68 ± 1.1 | 3.21 ± 0.76 | -14.1 ± 1 | -17.6 ± 2.2
C[C@H](NC[C@H](O)CP(=O)(O)Cc1ccccc1)c1ccc(Cl)c(Cl)c1 | -16.1 ± 9.6 | 0.712 ± 0.73 | 0.6 ± 1.8 | -9.14 ± 2.4
CS(=O)(=O)c1ccc(Cn2c3c(c4cc(F)cc(F)c42)CCCC3CC(=O)O)cc1 (stereo unspecified) | -13.6 ± 13 | -8.82 ± 4.6 | -0.141 ± 2.5 | -19.3 ± 13
O=C(O)CCC/C=C\CC1C(O)CC(O)C1/C=C/C(O)COc1cccc(Cl)c1 (racemic) [(±)-Cloprostenol sodium salt] | -6.16 ± 4.2 | -1.6 ± 2.3 | 1.24 ± 0.22 | -11.1 ± 6.8
Oc1cc(O)cc(/C=C/c2ccc(O)c(O)c2)c1 [Piceatannol] | -169 ± 190 | -40.4 ± 8.3 | -21.84 ± 0.2 | -363 ± 220
c1ccc2oc(C3=NCCN3)cc2c1 [2-BFI hydrochloride] | 9.2 ± 8.9 | -6.11 ± 4.5 | 1.83 ± 1.4 | -0.879 ± 0.4

By substructure, the compounds so far containing an aryl methoxy group.
Compound | robust z score of cell number (mIMCD3 [1]; siRNA: siRpgrip1l) | robust z score of cell number (mIMCD3 [1]; siRNA: siScr) | robust z score of cilia incidence (mIMCD3 [2]) | robust z score of cilia incidence (mIMCD3 [3])
COc1ccccc1N1CCN(CCCNc2cc(=O)n(C)c(=O)n2C)CC1 [Urapidil hydrochloride] | -3.72 ± 5.6 | -5.88 ± 2.6 | -4.46 ± 2.3 | -15.7 ± 9.6
COc1ccc(CCN(C)CCCN2CCc3cc(OC)c(OC)cc3CC2=O)cc1OC [Zatebradine hydrochloride] | 0.661 ± 2 | -4.86 ± 6 | -0.247 ± 0.29 | -10.3 ± 7.2

(cont.)

Compound | robust z score of cell number (mIMCD3 [1]; siRNA: siRpgrip1l) | robust z score of cell number (mIMCD3 [1]; siRNA: siScr) | robust z score of cilia incidence (mIMCD3 [2]) | robust z score of cilia incidence (mIMCD3 [3])
O=C(Nc1cccc2cccnc12)c1ccc(N2C(=O)[C@@H]3[C@H](C2=O)[C@@H]2C=C[C@H]3C2)cc1 [endo-IWR 1] | -30.8 ± 31 | -7.65 ± 3.1 | -20.4 ± 6.8 | -27.5 ± 9.7
O=C1c2ccccc2S(=O)(=O)N1CCCCN1CCN(c2ncccn2)CC1 [Ipsapirone] | -20.2 ± 15 | -25.8 ± 2.5 | -19.8 ± 0.58 | -14.3 ± 4.4
CC(C)c1onc(-c2c(Cl)cccc2Cl)c1COc1ccc(/C=C/c2cccc(C(=O)O)c2)c(Cl)c1 | -31.8 ± 10 | -139 ± 100 | -63.9 ± 13 | -56.5 ± 7
CCOc1cc(C(=O)Nc2ccc(Cl)c(-c3nc4ccccc4[nH]3)c2)cc(OCC)c1OCC | -19 ± 18 | -9.08 ± 7.3 | -4.4 ± 1.2 | -11.6 ± 3.3
COC(=O)C1=C(C)NC(C)=C(C(=O)OC(C)C)C1c1cccc2nonc12 (stereo unspecified) [Isradipine] | -16 ± 9.7 | -24.3 ± 20 | 1.06 ± 2.7 | -15.8 ± 8.4
CC(C)(C)n1nc(-c2cccc3ccccc23)c2c(N)ncnc21 [1-Naphthyl PP1] | -18.4 ± 18 | -7.59 ± 3.2 | -7.85 ± 9.6 | -9.6 ± 2.8
CN1Cc2c(C(=O)OC(C)(C)C)ncn2-c2ccsc2C1=O | 1.29 ± 3.3 | -2.56 ± 2 | -5.28 ± 3.8 | -21.5 ± 20
CC(=Nc1ccccc1N)c1c(C)cc(=O)n(O)c1O | -24.9 ± 28 | -7.14 ± 4.7 | 7.46 ± 3.9 | -5.66 ± 4.1
CCC(=O)O[C@]1(C(=O)SCF)[C@H](C)C[C@H]2[C@@H]3C[C@H](F)C4=CC(=O)C=C[C@]4(C)[C@@]3(F)[C@@H](O)C[C@@]21C [Fluticasone propionate] | -12.4 ± 7 | -16.8 ± 15 | -2.36 ± 4.9 | -15 ± 7.5
C/N=C(/NC#N)NCCSCc1csc(NC(=N)N)n1 [Tiotidine] | -4.26 ± 3.4 | -1.9 ± 0.56 | 1.54 ± 3.5 | -3.38 ± 1.2
CC(C)C[C@H](NC(=O)[C@@H](O)[C@H](N)Cc1ccccc1)C(=O)O [Bestatin] | -2.33 ± 2.1 | -0.119 ± 0.46 | 4.34 ± 3.5 | -22.6 ± 22
Cc1cccc(/C=C/c2ccccc2)n1 | -7.61 ± 6.4 | -2.59 ± 0.17 | -0.211 ± 1.4 | -15.2 ± 0.84
COc1ccc([C@@H]2Sc3ccccc3N(CCN(C)C)C(=O)[C@@H]2OC(C)=O)cc1 [Diltiazem hydrochloride] | -9.98 ± 1.5 | -12.6 ± 11 | 0.401 ± 0.18 | -7.08 ± 5.2
CC(C)SC(=N)N [S-Isopropylisothiourea hydrobromide] | -3.77 ± 3.8 | -1.91 ± 3.5 | -4.19 ± 1.9 | -10.6 ± 2.5
CN1[C@@H]2CC[C@H]1C[C@@H](OC(=O)c1c[nH]c3ccccc13)C2 [Tropisetron hydrochloride] | -38.3 ± 48 | -12.2 ± 5.2 | -37.5 ± 15 | -36.9 ± 1.5
O=S1(=O)c2cccc3cccc(c23)N1CCCN1CCN(c2ccc(F)cc2)CC1 [Fananserin] | -32.7 ± 10 | -144 ± 110 | -63.4 ± 13 | -53.3 ± 0.91
CC[C@H](C)C(=O)O[C@H]1C[C@@H](C)C=C2C=C[C@H](C)[C@H](CC[C@@H]3C[C@@H](O)CC(=O)O3)[C@H]21 [Lovastatin] | -128 ± 140 | -38.4 ± 9.1 | -37.9 ± 15 | -499 ± 330
CCN(c1ccccc1)c1cc(=NC)n(C)c(C)n1 | -18.5 ± 1.2 | -18.2 ± 9.7 | -23.2 ± 7 | -19.8 ± 2.1
Nc1nc(Cl)nc2c1ncn2[C@@H]1O[C@H](CO)[C@@H](O)[C@@H]1F [Clofarabine] | -32.9 ± 11 | -144 ± 110 | -66.2 ± 16 | -51.3 ± 7
Nc1ncn([C@H]2C[C@H](O)[C@@H](CO)O2)c(=O)n1 [Decitabine] | -26.2 ± 9.6 | -115 ± 85 | -39 ± 4 | -36.3 ± 0.85
COc1cc2ncnc(Nc3ccc(Oc4ccccc4)cc3)c2cc1OC | -51.4 ± 67 | 1.15 ± 5.6 | -0.0244 ± 0.9 | -9.13 ± 1.4
CCc1cc2c(c(CC)n1)CCC(=O)N2Cc1ccc(-c2ccccc2-c2nn[nH]n2)cc1 [ZD 7155 hydrochloride] | -9.46 ± 6.5 | -1.92 ± 1.5 | -0.352 ± 0.31 | -16.3 ± 4.8

Compound | robust z score of cell number (mIMCD3 [1]; siRNA: siRpgrip1l) | robust z score of cell number (mIMCD3 [1]; siRNA: siScr) | robust z score of cilia incidence (mIMCD3 [2]) | robust z score of cilia incidence (mIMCD3 [3])
N#C/C(=C\c1ccc(O)c(O)c1)C(=O)NCc1ccccc1 | -49.8 ± 55 | -18.7 ± 16 | -0.572 ± 0.42 | -9.32 ± 4.2
CCCCCCCCCCCCCCCC(=O)C(F)(F)F | -14.9 ± 16 | 2.06 ± 3 | 1.56 ± 2.9 | -137 ± 88
Cc1c(C2CCN(CCc3ccccc3)CC2)noc1-c1ccc(Cl)cc1 [L-741,742 hydrochloride] | -30.8 ± 0.32 | -29.8 ± 15 | -46.4 ± 2.7 | -28 ± 5
Nc1ncnc2c1ncn2[C@@H]1O[C@H](CO)C[C@H]1O [Cordycepin] | -20.6 ± 10 | -17.7 ± 2.6 | -12.7 ± 14 | -25.6 ± 16
OC(CNCC(O)C1CCc2cc(F)ccc2O1)C1CCc2cc(F)ccc2O1 (stereo unspecified) [Nebivolol hydrochloride] | -31.7 ± 30 | -14.6 ± 13 | -29.4 ± 21 | -30 ± 6.5
O=C(O)COc1ccc(OCCNC[C@H](O)COc2ccccc2)cc1 [ICI 215,001 hydrochloride] | -2.61 ± 1.3 | 0.15 ± 1.7 | -3.51 ± 1.2 | -9.36 ± 4.3
N[C@H]1CCN(O)C1=O | 12.2 ± 14 | -0.635 ± 3.5 | -2.17 ± 1.7 | -12.2 ± 12
O=C(c1ccc(F)cc1)C1CCN(CCn2c(=O)[nH]c3ccccc3c2=O)CC1 [Ketanserin tartrate] | 1.27 ± 5.2 | -6.49 ± 6 | 0.626 ± 6.1 | -10.2 ± 6.1
COc1ccc2[nH]c(C(=O)c3ccccc3)cc2c1 | -178 ± 200 | -41.5 ± 10 | -46.4 ± 13 | -538 ± 310
Fc1ccc([C@@H]2CCNC[C@H]2COc2ccc3c(c2)OCO3)cc1 [Paroxetine maleate] | -35.4 ± 20 | -49.5 ± 35 | -18.9 ± 0.32 | -50.3 ± 15
COc1ccc(Br)cc1S(=O)(=O)NC(=O)/C=C/c1ccccc1Cc1ccc2ccccc2c1 | -31.8 ± 30 | -14.6 ± 13 | -25.4 ± 16 | -28.5 ± 5
O=C1C(Cl)=C(NCCN2CCOCC2)C(=O)c2ncccc21 | -44.1 ± 40 | -44.5 ± 29 | -95.7 ± 49 | -93.7 ± 86
Cc1nc2ccc(NC(=O)Nc3ccnc4cccnc34)cc2o1 | -38 ± 35 | -24.4 ± 7.4 | -69.9 ± 50 | -59.3 ± 31
CCCCCCCC/C=C\CCCCCCCC(=O)NCCO [Oleylethanolamide] | -11.3 ± 14 | -4.23 ± 1.1 | -8.03 ± 6.4 | -158 ± 95
O=C1CCc2c(ccc3ccccc23)O1 [Splitomicin] | -20.9 ± 27 | 4.11 ± 5.4 | 0.622 ± 0.93 | -179 ± 110
Cc1cccc(C(=O)NCN2CCN(c3ccccc3C#N)CC2)c1 | -50 ± 58 | -0.809 ± 3.5 | -0.102 ± 0.39 | -15.3 ± 1.3
Cc1cc(C(=O)O)sc1C(N)C(=O)O (stereo unspecified) | -1.55 ± 2.3 | -2.82 ± 4.3 | 1.04 ± 1.6 | -7.1 ± 2.4
COc1cc(SC)ccc1C(=O)N1CCC(Cc2ccccc2)CC1 | -21.5 ± 5.5 | -107 ± 85 | -18.6 ± 2.3 | -31.7 ± 7.3
C[N+]1(C)CCC(OC(=O)C(c2ccccc2)c2ccccc2)CC1 | -3.37 ± 2.6 | -11.5 ± 13 | 2.5 ± 1.6 | 0.338 ± 0.34
NS(=O)(=O)c1cc2c(cc1Cl)NC(C1CC3C=CC1C3)NS2(=O)=O (stereo unspecified) [Cyclothiazide] | -1.47 ± 1.9 | 0.403 ± 1.1 | -0.352 ± 2.5 | -8.99 ± 0.23
